In US20060002951A1:
Results are given in words; binding and its absence hold for the method and conditions named. In cells and extracts the contact can be indirect. Some binding calls cover weakened binding; strength is not graded here.

Sequences of proteins named here, by UniProt entry; tags and fusion partners are left off. A change or cut given only in a name is not applied to a line headed by its entry.
UniProt Q9HC16: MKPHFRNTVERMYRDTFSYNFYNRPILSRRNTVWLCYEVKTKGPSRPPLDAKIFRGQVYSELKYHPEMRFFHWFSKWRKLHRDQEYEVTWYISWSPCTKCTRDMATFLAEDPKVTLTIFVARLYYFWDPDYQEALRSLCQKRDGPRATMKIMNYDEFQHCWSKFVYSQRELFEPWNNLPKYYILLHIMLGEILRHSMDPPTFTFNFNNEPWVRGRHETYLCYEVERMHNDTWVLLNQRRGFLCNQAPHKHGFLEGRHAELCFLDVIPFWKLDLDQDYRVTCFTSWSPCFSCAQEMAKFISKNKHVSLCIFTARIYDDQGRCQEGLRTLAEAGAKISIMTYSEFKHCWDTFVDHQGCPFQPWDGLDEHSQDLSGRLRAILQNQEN

Biological target: wild-type human APOBEC3G with a fused HA tag at the C-terminus (human) (UniProt Q9HC16)
Assay: co-immunoprecipitation with anti-HA after RNase A treatment, Western blot with anti-CA

Gag of HIV-1 BH10 expressed from BH10.P-.Vif- or BH10.FS-.Vif- proviral DNA (from UniProt P03347 1-512)
binding: binds
